Source: PubChem BioAssay AID504834 (National Center for Advancing Translational Sciences (NCATS), 2011)
In all, about 320,000 compounds went through this assay and about 22,000 (6.9%) were called active. The inconclusive results got no clear call from the source; some entries with a clear call stand among them for comparison. Calls follow the shape of the dose curve; as a rule, active = well fitted inhibition curve with a large enough effect; inconclusive = small, poorly fitted or top-dose-only effect, or another doubt; inactive = no such curve, though single readings can be large or run the other way. Potencies of inconclusive entries are doubtful fits and often do not repeat.

Experiment: Primary qHTS for delayed death inhibitors of the malarial parasite plastid, 96 hour incubation
Settings: P. falciparum luciferase reporter growth; series mostly up to 28.7 µM
Procedure, shortened: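 Readout is luminescence from an integrated firefly luciferase in P. falciparum. Red cells, 2% hematocrit and 0.05% parasitemia final, were cultured with compound through two parasite generations (96 hours) at 37 C, 5% CO2.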
Potency is read from the fitted curve at half-maximal effect.

SMILES | Potency
CC(C)(C)NC(=O)Nc1ccccc1C(N)=O | inconclusive: 18.5 µM [inhibitor, single point]
CCOC(=O)N1CCC(NC(=O)C2CCN(S(=O)(=O)c3cccc4cccnc34)CC2)CC1 | inconclusive: 18.5 µM [inhibitor, single point]
O=C1CCc2cc(S(=O)(=O)NC(Cc3ccccc3)C(=O)N3CCN(c4ccccn4)CC3)ccc2N1 (centres undefined) | inconclusive: 10.4 µM [inhibitor, single point]
CCN(CC)C(=O)NC(c1ccc(C)c(F)c1)C(Cl)(Cl)Cl (centres undefined) | inconclusive: 11.7 µM [inhibitor, partial curve, poor fit]
COc1ccc(/C=C/C(=O)Nc2ccc3c(c2)OCCO3)cc1OC | inactive
O=C(CSc1ccccc1)N1CCN(c2ccccc2)CC1 | inconclusive: 1.65 µM [inhibitor, full curve, poor fit]
CC(=O)c1ccc(S(=O)(=O)N(C)CCCC(=O)N2CCN(c3ncccn3)CC2)cc1 | active: 11.7 µM
O=C(Nc1nc2c(s1)CCCC2)c1ccc(Br)s1 | inactive
COC(=O)C1=C(c2ccc(OC(F)(F)F)cc2)C[C@@H]2CC[C@H]1N2C(=O)N1CCCCC1 | inconclusive: 6.57 µM [inhibitor, single point]
COc1ccc(NC(=S)N2CCC(NC(=O)c3cccc(F)c3)CC2)cc1 | inactive
COc1ccc(N2CCN(C(CNC(C)=O)c3ccc4c(c3)OCO4)CC2)cc1 (centres undefined) | inactive
COc1ccc(C)cc1N(CC(=O)N1CCOCC1)S(C)(=O)=O | inconclusive: 11.7 µM [inhibitor, single point]
CN1C(=O)NC(=O)/C(=C\C=C\c2ccccc2[N+](=O)[O-])C1=O | inactive
CCCCN(C)C(=O)c1cc2c(s1)-c1ccccc1S(=O)(=O)C2 | inactive
O=C(COc1cccc(C(F)(F)F)c1)N1CCN(c2ccc(O)cc2)CC1 | inconclusive: 14.7 µM [inhibitor, single point]
O=C(OCCOc1ccccc1F)c1cccc(S(=O)(=O)N2CCOCC2)c1 | inconclusive: 11.7 µM [inhibitor, single point]
CC1=C(C#N)C(=O)N(C2CCS(=O)(=O)C2)C(=O)/C1=C\c1ccco1 (centres undefined) | inactive
CCCCn1c(CN(C)Cc2ccccc2)nc2c1c(=O)n(C)c(=O)n2C | inactive
O=C(O)C1(c2ccccc2)CCN(S(=O)(=O)c2ccc(Cl)cc2)CC1 | inconclusive: 9.28 µM [inhibitor, partial curve, poor fit]
Cc1ccc(OCC(=O)NCCCNC(=O)c2ccco2)cc1C | inactive
c1ccc(COc2ccc(OCCN3CCCCC3)cc2)cc1 | inconclusive: 14.7 µM [inhibitor, partial curve]
COc1cccc(NC(=O)CCNC(=O)Cn2ccc3ccccc3c2=O)c1 | inconclusive: 11.7 µM [inhibitor, single point]
Cc1ccc(-c2csc(N(CC3CCCO3)C(=O)c3ccco3)n2)cc1 (centres undefined) | inconclusive: 3.29 µM [inhibitor, single point]

SMILES | Potency
O=C(Nc1cccc(S(=O)(=O)N2CCOCC2)c1)c1c2c(nc3ccccc13)CCC2 | inconclusive: 9.28 µM [inhibitor, partial curve, poor fit]
COc1ccc(N(C)C(=O)c2ccc3c(c2)nnn3C)cc1 | inactive
CCCC(=O)N1CCN(c2ccc(NC(=O)c3ccc([N+](=O)[O-])o3)cc2)CC1 | inactive
COc1cccc(NC(=S)N/N=C2/CCCCc3ccccc32)c1 | inconclusive: 4.15 µM [inhibitor, full curve, poor fit]
COc1ccc(S(=O)(=O)NCCCn2ccnc2)cc1C(C)(C)C | inconclusive: 13.1 µM [inhibitor, single point]
Cn1nnc(NC(=O)c2ccccc2F)n1 | inactive
COc1ccc(Cn2c(SC)nc3ccccc32)cc1[N+](=O)[O-] | inconclusive: 7.38 µM [inhibitor, partial curve, poor fit]
Cc1c(CCOC(=O)C23CC4CC(CC(C)(C4)C2)C3)sc[n+]1Cc1ccccc1 | active: 11.7 µM
CC(=O)Nc1sc2c(c1C(c1ccccn1)N1CCN(C)CC1)CCCC2 (centres undefined) | inconclusive: 1.04 µM [inhibitor, full curve, poor fit]
C[C@H](O)CN(C)C | inactive
O=C(CN1C(=O)C(=O)N(C2CCCC2)C1=O)Nc1ccc(N2CCOCC2)cc1 | inconclusive: 18.5 µM [inhibitor, single point]
Cc1ccc(S(=O)(=O)n2c3ccc(F)cc3c3nc(C)sc32)cc1 | inconclusive: 18.5 µM [inhibitor, single point]
C=CCNC(=O)C(=O)Nc1ccc2c(c1)N(S(=O)(=O)c1cccs1)CCC2 | inconclusive: 16.5 µM [inhibitor, single point]
C#CC(C)(C)NC(=S)NC1CC2C=CC1C2 (centres undefined) | inconclusive: 10.4 µM [inhibitor, partial curve]
CC(C)N=C(NS(=O)(=O)c1ccccc1)C(Cl)(Cl)Cl | inconclusive: 0.262 µM [inhibitor, full curve, poor fit]
Cc1ccc(CS(=O)(=O)Cc2ccc(C(=O)NCc3cccs3)o2)cc1 | inconclusive: 0.828 µM [inhibitor, partial curve, poor fit]
CCOC(=O)[C@H]1[C@H]2COc3ccc(C)cc3[C@@H]2N2C(=O)CN(CC3CCCO3)C(=O)[C@@]12C (some centres undefined) | inconclusive: 18.5 µM [inhibitor, single point]
O=C(NCC(=O)N1CCCCC1)c1ccc(Br)o1 | inconclusive: 20.8 µM [inhibitor, single point]
O=C(CSc1nc2ccccc2[nH]1)NC1CCCc2ccccc21 (centres undefined) | inconclusive: 14.7 µM [inhibitor, single point]
CC(/C=C/c1cccc([N+](=O)[O-])c1)=N/NC(=O)c1cccnc1 | inconclusive: 18.5 µM [inhibitor, single point]
Cc1coc2cc3oc(=O)c(Cc4ccccc4)c(C)c3cc12 | inconclusive: 10.4 µM [inhibitor, single point]
Cc1ccc(S(=O)(=O)N2CCCCC2)cc1NC(=O)C1CC(=O)N(Cc2ccco2)C1 (centres undefined) | inconclusive: 0.233 µM [inhibitor, full curve, poor fit]
N=c1c(-c2nc3ccccc3[nH]2)cc(C(=O)c2cccs2)nn1-c1ccccc1 | inconclusive: 3.7 µM [inhibitor, full curve, poor fit]

SMILES | Potency
c1csc(-c2nn3c(-c4ccncc4)nnc3s2)c1 | inconclusive: 0.147 µM [inhibitor, full curve, poor fit]
CC(C)C(NC(=O)Cc1ccccc1[N+](=O)[O-])C(C)C | active: 11.7 µM
CC(=O)Nc1ccc(S(=O)(=O)NNC(=O)c2cc3c4ccccc4n(C)c3s2)cc1 | inconclusive: 0.0294 µM [inhibitor, full curve, poor fit]
CCc1cc2c(CN3CCN(CCO)CC3)cc(=O)oc2cc1O | inconclusive: 1.65 µM [inhibitor, partial curve, poor fit]
CC1CCN(C(=O)CC(NC(=O)c2ccccc2Cl)c2ccccc2)CC1 (centres undefined) | inconclusive: 18.5 µM [inhibitor, single point]
Cc1ccc(-c2nnc(Nc3ccc(C(=O)N(C)C)cc3)c3ccccc23)cc1S(=O)(=O)NC(C)(C)CO | inconclusive: 0.828 µM [inhibitor, full curve, poor fit]
CCOC(=O)C1CCN(C(=O)c2cc3c(OC)c(OC)c(OC)cc3[nH]2)CC1 | inconclusive: 18.5 µM [inhibitor, partial curve, poor fit]
Cc1ccc(NCc2nnc3n2CCCCC3)cc1 | inconclusive: 18.5 µM [inhibitor, single point]
O=C(Nn1c(C2CCC2)nc2ccccc2c1=O)c1cccs1 | inconclusive: 5.22 µM [inhibitor, partial curve]
COCCCN(C(=O)Nc1ccc(C)c(C)c1)C(C)c1ccccn1 (centres undefined) | active: 13.1 µM
Cc1cc(C(=O)CSc2nnc(Cc3ccccc3)o2)c(C)n1Cc1ccc2c(c1)OCO2 | inconclusive: 18.5 µM [inhibitor, single point]
CCC(C)NC(=O)CSc1nnc(-c2ccc(OC)c(OC)c2)c(-c2ccc(OC)c(OC)c2)n1 (centres undefined) | inconclusive: 4.15 µM [inhibitor, partial curve, poor fit]
COc1cc(OC)c(CN2CCC(CO)(CCOc3ccccc3)CC2)c(OC)c1 | inactive
COc1cc(CNc2ncn[nH]2)ccc1OCC(=O)NC(C)(C)C | inactive
O=C(O)C1C2CCC(O2)C1C(=O)Nc1ccc(O)cc1 (centres undefined) | inactive
CC1=NC(=O)C(N=Nc2ccccc2C(=O)O)N1c1ccccc1 (centres undefined) | active: 4.65 µM
CCOC(=O)C1CCCN(C(=O)CCCn2nnnc2CN2CCOCC2)C1 (centres undefined) | inconclusive: 16.5 µM [inhibitor, partial curve, poor fit]
Cc1ccc(CCNC(=O)CSCc2ccc(F)cc2)cc1 | inactive
Nc1cc(=O)[nH]c(SCC(=O)Nc2ccc(F)c(Cl)c2)n1 | inconclusive: 16.5 µM [inhibitor, single point]
C/C(CC(=O)N1CCN(C=O)CC1)=N\NC(=O)c1cccc([N+](=O)[O-])c1 | inactive
CC1(C)COCN1S(=O)(=O)c1ccc(C(=O)Nc2nnc(-c3ccc(Cl)s3)o2)cc1 | inactive
N#CCC(=O)NCCCc1ccccc1 | inactive
O=C1Nc2ccccc2C1(c1ccccc1)c1ccccc1 | inconclusive: 7.38 µM [inhibitor, partial curve]
